Laboratory results taken from article PMC8315068.
No constants are given. Whether binding was seen depends on the method and setting. For some of these results: In cells and extracts the contact can be indirect. Some entries that bind do so weakly or less than the wild type. For some of these results: Sequences can lack the tags named with a protein. Values belong to the substance of their own block, whether it stands above or below them.

Protein sequences, listed by entry. Tags and fused reporters are not part of them.
UniProt P04150: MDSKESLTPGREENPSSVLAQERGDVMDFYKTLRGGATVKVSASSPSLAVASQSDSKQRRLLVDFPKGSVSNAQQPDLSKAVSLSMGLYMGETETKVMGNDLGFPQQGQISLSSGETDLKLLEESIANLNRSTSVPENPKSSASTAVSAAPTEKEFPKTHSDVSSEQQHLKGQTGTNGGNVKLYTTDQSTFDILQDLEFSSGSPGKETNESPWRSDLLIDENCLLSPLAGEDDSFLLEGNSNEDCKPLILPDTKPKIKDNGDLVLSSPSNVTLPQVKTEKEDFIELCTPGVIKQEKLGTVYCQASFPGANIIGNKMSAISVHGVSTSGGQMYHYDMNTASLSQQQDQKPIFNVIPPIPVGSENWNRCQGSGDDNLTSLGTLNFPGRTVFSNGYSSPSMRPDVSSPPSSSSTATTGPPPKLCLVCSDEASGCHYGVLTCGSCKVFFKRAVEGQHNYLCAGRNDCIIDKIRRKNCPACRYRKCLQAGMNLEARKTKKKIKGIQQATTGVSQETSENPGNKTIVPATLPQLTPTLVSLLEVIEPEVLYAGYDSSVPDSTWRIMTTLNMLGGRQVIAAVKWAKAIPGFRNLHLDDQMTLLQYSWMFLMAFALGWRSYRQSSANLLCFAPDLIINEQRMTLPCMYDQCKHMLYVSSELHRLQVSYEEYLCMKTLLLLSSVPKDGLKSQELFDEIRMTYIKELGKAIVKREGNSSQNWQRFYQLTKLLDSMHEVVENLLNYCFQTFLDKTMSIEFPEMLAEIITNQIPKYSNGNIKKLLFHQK
UniProt P40763: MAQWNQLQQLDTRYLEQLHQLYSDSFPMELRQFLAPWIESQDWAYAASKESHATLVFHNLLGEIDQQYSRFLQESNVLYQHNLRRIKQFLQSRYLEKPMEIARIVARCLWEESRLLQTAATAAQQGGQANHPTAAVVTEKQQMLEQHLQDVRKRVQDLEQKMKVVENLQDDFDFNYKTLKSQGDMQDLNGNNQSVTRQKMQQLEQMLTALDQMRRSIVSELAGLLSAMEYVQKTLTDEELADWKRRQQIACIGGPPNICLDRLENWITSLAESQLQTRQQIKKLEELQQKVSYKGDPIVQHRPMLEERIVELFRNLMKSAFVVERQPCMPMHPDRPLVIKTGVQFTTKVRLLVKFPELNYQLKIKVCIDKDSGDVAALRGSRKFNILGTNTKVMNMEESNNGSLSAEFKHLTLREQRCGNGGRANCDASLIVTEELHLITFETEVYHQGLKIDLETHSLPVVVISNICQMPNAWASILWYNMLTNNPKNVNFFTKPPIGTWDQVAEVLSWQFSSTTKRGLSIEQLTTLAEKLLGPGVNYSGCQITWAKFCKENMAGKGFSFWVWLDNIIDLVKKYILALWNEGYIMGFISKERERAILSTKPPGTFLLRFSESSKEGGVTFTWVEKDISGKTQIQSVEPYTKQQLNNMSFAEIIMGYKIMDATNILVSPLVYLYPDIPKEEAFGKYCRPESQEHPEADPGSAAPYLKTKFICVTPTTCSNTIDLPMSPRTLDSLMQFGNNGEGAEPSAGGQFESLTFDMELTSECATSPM
UniProt P06537: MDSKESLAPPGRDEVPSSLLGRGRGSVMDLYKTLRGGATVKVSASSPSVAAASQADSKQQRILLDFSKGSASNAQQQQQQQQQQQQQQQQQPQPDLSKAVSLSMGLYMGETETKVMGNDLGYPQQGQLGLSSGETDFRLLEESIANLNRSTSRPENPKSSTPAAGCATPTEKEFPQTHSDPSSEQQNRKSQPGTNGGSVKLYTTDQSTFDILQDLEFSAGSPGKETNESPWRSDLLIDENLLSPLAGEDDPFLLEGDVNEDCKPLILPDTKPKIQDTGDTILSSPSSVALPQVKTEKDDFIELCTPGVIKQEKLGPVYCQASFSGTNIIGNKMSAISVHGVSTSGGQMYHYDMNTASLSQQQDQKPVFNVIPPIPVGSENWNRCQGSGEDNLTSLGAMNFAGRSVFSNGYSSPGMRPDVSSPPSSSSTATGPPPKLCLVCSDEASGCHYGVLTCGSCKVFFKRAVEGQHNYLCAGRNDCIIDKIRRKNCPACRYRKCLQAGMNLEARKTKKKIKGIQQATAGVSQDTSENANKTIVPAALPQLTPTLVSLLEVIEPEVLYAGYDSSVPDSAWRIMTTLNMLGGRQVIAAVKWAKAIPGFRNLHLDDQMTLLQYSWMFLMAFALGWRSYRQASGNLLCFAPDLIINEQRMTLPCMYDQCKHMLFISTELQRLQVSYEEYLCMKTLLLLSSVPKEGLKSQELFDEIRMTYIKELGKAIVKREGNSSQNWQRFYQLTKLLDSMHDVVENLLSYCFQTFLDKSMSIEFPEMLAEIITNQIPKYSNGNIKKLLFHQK

Columns and labels:
[1] = biological target: Twist1 protein (TW1), endogenous in cells isolated from human colon tissue (human (endogenous in colon tissue cells of patients)) (UniProt Q15672); assay: co-IP; protein extracts of colon neutrophils of NC (non-UC control) subjects (pooled, n = 8); antibodies of GRα or TW1 as precipitation Ab, protein G agarose beads, Western blot
[2] = biological target: Twist1 protein (TW1), endogenous in cells isolated from human colon tissue (human (endogenous in colon tissue cells of patients)) (UniProt Q15672); assay: co-IP; protein extracts of colon neutrophils of CS UC patients (pooled, n = 12); antibodies of GRα or TW1 as precipitation Ab, protein G agarose beads, Western blot
[3] = biological target: Twist1 protein (TW1), endogenous in cells isolated from human colon tissue (human (endogenous in colon tissue cells of patients)) (UniProt Q15672); assay: co-IP; B cells isolated from CR UC colon samples (Figure S6)
[4] = biological target: Twist1 protein (TW1), endogenous in cells isolated from human colon tissue (human (endogenous in colon tissue cells of patients)) (UniProt Q15672); assay: co-IP; protein extracts of colon neutrophils of CR UC patients (pooled, n = 19); antibodies of GRα or TW1 as precipitation Ab, protein G agarose beads, Western blot
[5] = biological target: Twist1 protein (TW1), endogenous in cells isolated from human colon tissue (human (endogenous in colon tissue cells of patients)) (UniProt Q15672); assay: co-IP; T cells isolated from CR UC colon samples (Figure S6)
[6] = biological target: Twist1 protein (TW1), endogenous in cells isolated from human colon tissue (human (endogenous in colon tissue cells of patients)) (UniProt Q15672); assay: co-IP; eosinophils isolated from CR UC colon samples (Figure S6)
[7] = biological target: T1, Twist1 protein (TW1), endogenous in mouse colon neutrophils (mouse (endogenous in colon neutrophils of BALB/c mice)) (UniProt P26687); assay: co-IP; protein extracts of colon neutrophils of mice treated with hypoxia for one week; Western blot
T1 sequence: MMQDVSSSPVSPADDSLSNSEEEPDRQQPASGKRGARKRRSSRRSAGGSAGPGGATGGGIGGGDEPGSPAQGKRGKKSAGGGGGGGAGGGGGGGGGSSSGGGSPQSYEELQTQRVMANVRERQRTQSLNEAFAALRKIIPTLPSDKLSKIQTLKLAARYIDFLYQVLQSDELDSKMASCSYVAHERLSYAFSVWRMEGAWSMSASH

[8] = biological target: recombinant (r) GR (glucocorticoid receptor) (UniProt P04150); assay: ELISA; competitive ELISA: plate coated with rGR (10 µg/ml); rCortisol-His (1 µg/ml) mixed with rTW1 (from 1 µg/ml, 1:50 to 1:3200), 37 °C 1 h; HRP anti-His Ab, absorbance at 450 nm; both purified
[9] = biological target: T2, Ras Protein Activator Like 1 (RASAL1), endogenous in human colon neutrophils (human (endogenous in colon neutrophils of UC patients)) (UniProt O95294); assay: co-IP; protein extracts of neutrophils; anti-STAT3 Ab or anti-RASAL1 Ab as the precipitating Ab, Western blot
T2 sequence: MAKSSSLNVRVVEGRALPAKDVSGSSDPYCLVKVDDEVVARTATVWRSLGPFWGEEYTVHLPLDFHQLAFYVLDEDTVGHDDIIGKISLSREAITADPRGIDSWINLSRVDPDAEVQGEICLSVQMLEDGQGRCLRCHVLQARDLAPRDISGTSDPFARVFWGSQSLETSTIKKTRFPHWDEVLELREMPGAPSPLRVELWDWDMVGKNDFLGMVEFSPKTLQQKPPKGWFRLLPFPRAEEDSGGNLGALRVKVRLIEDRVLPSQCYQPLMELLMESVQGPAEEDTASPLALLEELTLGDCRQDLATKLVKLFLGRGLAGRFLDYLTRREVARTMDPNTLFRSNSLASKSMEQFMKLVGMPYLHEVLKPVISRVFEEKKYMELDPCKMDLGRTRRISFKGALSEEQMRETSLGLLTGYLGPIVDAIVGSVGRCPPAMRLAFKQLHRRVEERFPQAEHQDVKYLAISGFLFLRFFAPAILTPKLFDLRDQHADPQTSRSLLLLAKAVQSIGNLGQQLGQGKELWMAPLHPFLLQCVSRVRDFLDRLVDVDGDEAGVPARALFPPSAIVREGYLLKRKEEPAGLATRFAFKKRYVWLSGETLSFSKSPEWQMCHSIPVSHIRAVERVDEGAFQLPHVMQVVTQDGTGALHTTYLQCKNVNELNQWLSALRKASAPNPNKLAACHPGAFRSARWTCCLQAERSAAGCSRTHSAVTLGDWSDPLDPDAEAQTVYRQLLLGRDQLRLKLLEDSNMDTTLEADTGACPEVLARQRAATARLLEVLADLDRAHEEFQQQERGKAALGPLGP

[10] = biological target: T3, recombinant (r) RASAL1 with His tag (UniProt O95294); assay: ELISA; competitive ELISA: plate coated with rRas (10 µg/ml, pH 9.6 coating buffer); rRASAL1-His (1 µg/ml) mixed with rSTAT3 (1:50 to 1:3200), 37 °C 1 h; HRP anti-His Ab, absorbance at 450 nm; both purified
T3 sequence: T2 sequence

Substance: glucocorticoid receptor (GR)α, endogenous in cells isolated from human colon tissue (from UniProt P04150 1-777)
binding [1]: no binding (condition: neutrophils of the NC group)
binding [2]: no binding (condition: neutrophils of the CS group)
binding [3]: no binding (condition: B cells of CR UC colon samples)
binding [4]: binds
binding [5]: no binding (condition: T cells of CR UC colon samples)
binding [6]: no binding (condition: eosinophils of CR UC colon samples)

Substance: STAT3 (Signal Transducer and Activator of Transcription-3), endogenous in human colon neutrophils (from UniProt P40763 1-770)
binding [9]: binds

Substance: recombinant (r) STAT3 (from UniProt P40763 1-770)
binding [10]: binds

Further lines, results first:

binding [7]: binds
Substance: glucocorticoid receptor α (GRα), endogenous in mouse colon neutrophils (from UniProt P06537 1-792)

binding [8]: binds
Substance: recombinant (r) TW1 (from UniProt Q15672 1-202)
